The test is described as follows: qHTS Assay to Find Inhibitors of Chronic Active B-Cell Receptor Signaling. The settings on record: ABC-DLBCL IkBa-CBG/CBR reporter, luminescence ratio (green luciferase fused to IkBa over red control in TMD8 lymphoma cells), 4 h. The gist of the method: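 Compounds up to 46 uM were incubated four hours with TMD8 cells whose green CBG68 luciferase is fused to IkappaBalpha; red CBR luminescence normalised the signal, and concentration-effect curves were fitted to fusion, red and ratio data.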
Background: Quantitative high-throughput screening tests each substance at several concentrations.

Where [1] appears, read: measured here: CBR red luminescence, cell number.
Where [2] appears, read: measured here: IkBa-CBG green luminescence.

What is called AC50 is the concentration giving half of the maximal activity seen.

The other results are listed elsewhere or left out. Further columns of the screen follow, without active or inactive calls. Compounds called inactive in the main read-out are mostly missing here. Words in brackets tell the shape of the fitted curve; partial curves, single points and poor fits give uncertain potencies.

For `COc1ccccc1N(CC(=O)NCCSCc1ccc(C)cc1)S(=O)(=O)c1ccccc1`, the AC50 under setting [1] is 15.8 µM [falling, partial curve].

Regarding `Cc1cc(Br)ccc1NC(=O)CN(C)Cc1cccs1`, the AC50 under setting [1] is 15.8 µM [rising, partial curve].

Turning to `Cc1noc(C)c1COc1cccc(C(=O)OC(C)C(=O)Nc2ccc3c(c2)OCO3)c1` (centres undefined), under setting [2], the AC50 is 29.1 µM [falling, single point]. With `CC1CCCC(NC(=O)c2cn(C)c3ccc(S(=O)(=O)N4CCCC4)cc3c2=O)C1C` (centres undefined), under setting [1], the concentration at half-maximal activity (AC50) is 29.1 µM [rising, single point]. On the same count and under the same terms, the result for `Cc1noc(C)c1C(=O)OC(C)C(=O)NC(C)c1ccc(Cl)cc1Cl` (centres undefined) reads 0.411 µM [falling, partial curve, poor fit]; that for `O=C1C=C(Nc2ccccc2O)c2ccccc2C1=O`, 5.01 µM [falling, full curve]; that for `Cc1cc(C(=O)N/N=C2\CCCC(=O)C2)c(C)o1`, 29.1 µM [falling, single point]. On the same count and under the same terms, the result for `Cc1ccc(C(=O)CCC(=O)Nc2ncccc2O)cc1` reads 23.1 µM [falling, partial curve, poor fit]; that for `O=C(NNC(=S)Nc1ccc(Br)cc1)c1ccccc1Br`, 15.8 µM [falling, single point]; that for `COc1cccc(C2=C(C(C)=O)Sc3nncn3N2C(C)=O)c1`, 1.41 µM [falling, partial curve]. Take `Cc1ccc(-c2c3c(=O)n(C)c(=O)n(C)c3cn2CCCN2CCOCC2)cc1`: the AC50 under setting [1] was 20.6 µM [rising, single point].

Turning to `CCOC(=O)C1=C(O)/C(=C\c2cc(C)n(-c3ccc(F)cc3)c2C)N=C1C`, the half-maximal activity concentration (AC50) under setting [1] is 5.62 µM [falling, full curve, poor fit]. As to `c1ccc(CCNc2nc(-c3cccnc3)cs2)cc1`, under setting [1], the AC50 is 0.411 µM [rising, partial curve, poor fit]. As to `Cc1ccc2nc(NC(=O)c3ccc(Br)o3)sc2c1`, the AC50 under setting [1] was 2.82 µM [falling, full curve]. As for `O=C(N/N=C/c1ccccc1[N+](=O)[O-])c1cccs1`, the AC50 under setting [1] is 35.5 µM [falling, single point].

Regarding `C[C@@]12C(=O)OC(=O)[C@]1(C)C1CCC2O1`, the AC50 is 3.26 µM [rising, full curve] under setting [1] and 3.26 µM [falling, full curve] under setting [2]. Consider `CN1CCN(CC(=O)Nc2cccc(S(=O)(=O)N(C)c3ccccc3)c2)CC1`, for which the AC50 under setting [1] was 11.6 µM [rising, partial curve, poor fit].

With `Cc1ccnc(SCC(=O)c2cccc([N+](=O)[O-])c2)n1`, the AC50 under setting [1] was 0.00517 µM [rising, full curve, poor fit].

The values above are taken from PubChem BioAssay AID493014 (National Center for Advancing Translational Sciences (NCATS), 2011).
